PubChem BioAssay AID504791 | Drosophila RNAi Screening Center | 2011

- Aim: 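Factors in Argonaute-based small RNA production and activity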 (primary screen)
- Cell system: Drosophila S2-derived reporter cells
- Knock-down reagent: long dsRNA against Drosophila genes, about 150-250 ng dsRNA per well (siRNA assay); about 80-120 ng (miRNA assay)
- Timing: about 5 days (siRNA assay); about 4 days (miRNA assay)
- Conditions: copper sulfate induction of reporters: 25 µM (siRNA assay); 200 mM stated (miRNA assay), 1-2 days before reading
- Measured: 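Dual luciferase assay: Renilla to firefly signal ratio in each well, scaled to the mean ratio of its plate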
- Reading the numbers: siRNA reporter hit score: higher = 3 marks a strong hit with raised ratio; -3 a strong hit with lowered ratio
- Rule for the call: 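a well was a first-pass pick when its plate-scaled ratio rose above 1.5 (siRNA assay) or 1.6 (miRNA assay), or dropped below 0.6; a gene counted only if two separate dsRNAs agreed on retest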
The deposit covers about 23,000 reagents; this is a random part of those with a known target gene and a result. In the full data, 199 (0.86%) are marked active. 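Plate-scaled ratios behind the calls are not deposited; printed light signals are raw; many rows marked increased or decreased are still called inactive.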 Unmarked entries are inactive. Reagents against one gene are numbered here. Names joined by + are all predicted targets of the reagent.

no.	target	reagent	siRNA reporter hit score	stable siRNA reporter change	stable assay Renilla, run 1 (luminescence)	stable assay firefly, run 1 (luminescence)
1	Syx13 (GeneID 39485)	1			5790	3.02e5
2	mfrn (GeneID 43353)	1		reporter ratio lowered past the hit cutoff	4539	4.85e5
3	CG17325 + CG42305	1			6464	4.01e5
4	se (GeneID 38973)	1			6594	4.70e5
5	MED11 (GeneID 40042)	1		reporter ratio raised past the hit cutoff	5862	1.93e5
6	MED11 (GeneID 40042)	2			2780	2.53e5
7	ChT (GeneID 42245)	1			8752	4.41e5
8	CG4497 (GeneID 34001)	1			15382	1.71e5
9	Mal-A2 (GeneID 35825)	1			5768	3.87e5
10	HSPC300 (GeneID 246497)	1			4072	4.03e5
11	CG9175 (GeneID 33862)	1			60265	3.80e5
12	CG7058 (GeneID 32873)	1			5076	4.17e5
13	serp (GeneID 40150)	1			7223	4.14e5
14	serp (GeneID 40150)	2			7086	3.98e5
15	Ir48c (GeneID 36257)	1			5059	2.82e5
16	Sema5c (GeneID 37066)	1			4726	2.84e5
17	Clp (GeneID 33259)	1		reporter ratio raised past the hit cutoff	13057	4.07e5
18	wkd (GeneID 41390)	1			6174	3.17e5
19	mfas (GeneID 41455)	1			8470	3.70e5

Next part; the last 3 above are carried over.
no.	target	reagent	siRNA reporter hit score	stable siRNA reporter change	stable assay Renilla, run 1 (luminescence)	stable assay firefly, run 1 (luminescence)
17	Clp (GeneID 33259)	1		reporter ratio raised past the hit cutoff	13057	4.07e5
18	wkd (GeneID 41390)	1			6174	3.17e5
19	mfas (GeneID 41455)	1			8470	3.70e5
20	CG1513 (GeneID 36028)	1			4179	4.32e5
21	CG1513 (GeneID 36028)	2			3503	3.70e5
22	CG1513 (GeneID 36028)	3			6508	5.08e5
23	CG42286 (retired record) (GeneID 41002)	1			6079	2.74e5
24	sdt (GeneID 44861)	1			4787	3.68e5
25	sdt (GeneID 44861)	2			4800	3.59e5
26	sdt (GeneID 44861)	3			5586	3.66e5
27	sdt (GeneID 44861)	4			5803	3.80e5
28	sdt (GeneID 44861)	5			4908	3.29e5
29	sdt (GeneID 44861)	6	3		4439	1.69e5
30	sdt (GeneID 44861)	7			4460	1.87e5
31	sdt (GeneID 44861)	8			4970	2.43e5
32	sdt (GeneID 44861)	9			7278	5.07e5
33	CAH8 (GeneID 42625)	1			6835	3.39e5
34	park + Targ3	1			9642	5.04e5
35	Trmt112 (GeneID 40343)	1			7158	4.80e5
36	CG2186 (GeneID 32017)	1			7347	4.46e5
37	CG34224 (GeneID 5740585)	1			6939	3.68e5
38	CG12517 (GeneID 34506)	1			7956	4.38e5
39	RfC3 (GeneID 34423)	1			8356	3.22e5
40	Mkrn1 (GeneID 44131)	1			5224	5.66e5
41	Con (GeneID 38590)	1			8577	4.55e5
42	Ugt37A2 (GeneID 41573)	1			6843	4.01e5
43	CG18273 (GeneID 30991)	1		reporter ratio lowered past the hit cutoff	5107	6.48e5
44	CG18273 (GeneID 30991)	2		reporter ratio raised past the hit cutoff	2064	75318
45	CG7906 (GeneID 39575)	1			7750	2.95e5
46	CG6304 (GeneID 35032)	1			12134	2.61e6
47	dod (GeneID 33111)	1			4876	4.61e5
48	CG17109 (GeneID 42730)	1			6288	3.11e5
49	CG1024 (GeneID 40789)	1			7094	3.71e5
50	CG43861 + CG12508 (retired record)	1			7322	3.90e5
51	PolI (GeneID 40965)	1			8274	4.27e5
52	bsd (GeneID 36302)	1			7790	3.60e5
53	Tsp42Eb + CG30160	1			6691	5.86e5
54	Tsp42Eb + CG30160	2			6310	3.51e5
55	yellow-e (GeneID 41653)	1			3767	3.93e5
56	yellow-e (GeneID 41653)	2			6063	3.37e5
57	Adf1 (GeneID 47082)	1			5096	4.88e5
58	Adf1 (GeneID 47082)	2			43572	9.43e5
